These are yes or no findings as the source states them, for the method shown. Binding seen in cells or lysates may run through a third protein. A yes stands for co-enrichment or nearness to the bait. Other partners may have been found.
Target: angiostatin K1-4 (UniProt P00747)
Assay: co-immunoprecipitation with angiostatin K1-4, mass spectrometry

By UniProt entry, the sequences of proteins in these tests, tags left out. Residues count along the entry.
UniProt P00747, residues 99-459: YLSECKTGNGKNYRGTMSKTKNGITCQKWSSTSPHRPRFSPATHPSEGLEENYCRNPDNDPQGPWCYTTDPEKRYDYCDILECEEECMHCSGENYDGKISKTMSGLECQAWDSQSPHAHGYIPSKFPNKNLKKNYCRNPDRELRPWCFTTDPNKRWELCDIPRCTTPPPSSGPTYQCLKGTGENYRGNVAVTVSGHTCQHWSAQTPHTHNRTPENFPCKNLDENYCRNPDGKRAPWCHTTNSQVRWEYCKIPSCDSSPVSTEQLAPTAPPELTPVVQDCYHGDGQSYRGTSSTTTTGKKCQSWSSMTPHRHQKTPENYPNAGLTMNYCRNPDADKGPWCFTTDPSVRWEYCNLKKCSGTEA

Binder | binding
TGTAEMSSILEER [Alpha peptide 1] | binds
TSIAIDTIINQK [Alpha peptide 2] | binds
AVDSLVPIGR [Alpha peptide 3] | binds
